# Measured values: the supplement of paper PMC8728848
# Some of the results follow.
# B1: B936 (Bifidobacterium sp) (protein)
# chain: MKNWKKAIALVASAAALVSVAACGPSNAGGSSDSGKKTVGFVAVGPEGGFRTANEKDIQKAFEDAGFDLTYSPTQNNDQQKQIQAFNKFVNDEVDAIILSSTEDSGWDDSLKKAAEAEIPVFTVDRNVDVKDAEAKKAIVAHIGPSNVWCGEQAAEFVNKNFPDGANGFILEGPAGLSVVKDRGTGWGNKVASNVKVLESQSANWSTDEAKTVTAGLLDKYKSDNPQFIFAQNDEMGLGAAQAVDAAGLKGKVKIITIDGTKNALQALVDGDLSYVIEYNPIFGKETAQAVKDYLDGKTVEKDIEIESKTFDAASAKEALDNNTRAY
# What was measured:
# Test in all cases: glycan array binding signal (z-score within array); higher = stronger binding
# Settings in all cases: glycan notation: IUPAC condensed, linker removed
# [1] = target: Fuc(a1-2)Gal(b1-4)GlcNAc(b1-3)Gal(b1-4)GlcNAc(b1-3)Gal(b1-4)GlcNAc
# In short: (§1)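 Negative Z-scores can be read as non-binding. The Z-score is calculated within each array and then averaged across arrays of one protein sequence at different concentrations or buffers and across linkers. Arrays, 3228 in all, were curated from the Consortium for Functional Glycomics database and kept only where the protein sequence was available.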
# [2] = target: Fuc(a1-2)Gal(b1-4)GlcNAc(b1-3)GalNAc
# In short: as §1
# [3] = target: Fuc(a1-2)Gal(b1-4)GlcNAc(b1-3)[Fuc(a1-2)Gal(b1-4)GlcNAc(b1-6)]GalNAc
# In short: as §1
# [4] = target: Fuc(a1-2)Gal(b1-4)GlcNAc(b1-3)[Fuc(a1-3)[Gal(b1-4)]GlcNAc(b1-6)]Gal(b1-4)Glc
# In short: as §1
# [5] = target: Fuc(a1-2)Gal(b1-4)GlcNAc(b1-6)GalNAc
# In short: as §1
# [6] = target: Fuc(a1-2)Gal(b1-4)GlcNAc6S
# In short: as §1
# [7] = target: Fuc(a1-2)Gal(b1-4)[Fuc(a1-3)]GlcNAc
# In short: as §1
# [8] = target: Fuc(a1-2)Gal(b1-4)[Fuc(a1-3)]GlcNAc(b1-2)Man(a1-3)[Fuc(a1-2)Gal(b1-4)[Fuc(a1-3)]GlcNAc(b1-2)Man(a1-6)]Man(b1-4)GlcNAc(b1-4)[Fuc(a1-6)]GlcNAc
# In short: as §1
# [9] = target: Fuc(a1-2)Gal(b1-4)[Fuc(a1-3)]GlcNAc(b1-2)[Fuc(a1-2)Gal(b1-4)[Fuc(a1-3)]GlcNAc(b1-4)]Man(a1-3)[Fuc(a1-2)Gal(b1-4)[Fuc(a1-3)]GlcNAc(b1-2)Man(a1-6)]Man(b1-4)GlcNAc(b1-4)GlcNAc
# In short: as §1
# [10] = target: Fuc(a1-2)Gal(b1-4)[Fuc(a1-3)]GlcNAc(b1-3)Gal(b1-4)[Fuc(a1-3)]GlcNAc
# In short: as §1
# [11] = target: Fuc(a1-2)Gal(b1-4)[Fuc(a1-3)]GlcNAc(b1-3)Gal(b1-4)[Fuc(a1-3)]GlcNAc(b1-3)Gal(b1-4)[Fuc(a1-3)]GlcNAc
# In short: as §1
# [12] = target: Fuc(a1-2)Gal(b1-4)[Fuc(a1-3)]GlcNAc(b1-3)GalNAc
# In short: as §1
# [13] = target: Fuc(a1-2)Gal(b1-4)[Fuc(a1-3)]GlcNAc(b1-3)[Neu5Ac(a2-6)Gal(b1-4)GlcNAc(b1-6)]Gal(b1-4)Glc
# In short: as §1
# [14] = target: Fuc(a1-2)Gal3S(b1-4)GlcNAc
# In short: as §1
# [15] = target: Fuc(a1-2)Gal6S(b1-3)GlcNAc
# In short: as §1
# [16] = target: Fuc(a1-2)Gal6S(b1-3)GlcNAc6S
# In short: as §1
# Fuc(a1-2)Gal6S(b1-4)Glc = target: Fuc(a1-2)Gal6S(b1-4)Glc
# In short: as §1
# [17] = target: Fuc(a1-2)Gal6S(b1-4)Glc6S
# In short: as §1
# Fuc(a1-2)[Gal(a1-3)]Gal = target: Fuc(a1-2)[Gal(a1-3)]Gal
# In short: as §1
# [18] = target: Fuc(a1-2)[Gal(a1-3)]Gal(b1-3)GalNAc
# In short: as §1
# [19] = target: Fuc(a1-2)[Gal(a1-3)]Gal(b1-3)GalNAc(b1-3)Gal(a1-4)Gal(b1-4)Glc
# In short: as §1
# [20] = target: Fuc(a1-2)[Gal(a1-3)]Gal(b1-3)GlcNAc
# In short: as §1
# [21] = target: Fuc(a1-2)[Gal(a1-3)]Gal(b1-3)GlcNAc(b1-2)Man(a1-3)[Fuc(a1-2)[Gal(a1-3)]Gal(b1-3)GlcNAc(b1-2)Man(a1-6)]Man(b1-4)GlcNAc(b1-4)GlcNAc
# In short: as §1
# [22] = target: Fuc(a1-2)[Gal(a1-3)]Gal(b1-3)GlcNAc(b1-2)Man(a1-3)[Fuc(a1-2)[Gal(a1-3)]Gal(b1-3)GlcNAc(b1-2)Man(a1-6)]Man(b1-4)GlcNAc(b1-4)[Fuc(a1-6)]GlcNAc
# In short: as §1
# [23] = target: Fuc(a1-2)[Gal(a1-3)]Gal(b1-3)GlcNAc(b1-3)GalNAc
# In short: as §1
# [24] = target: Fuc(a1-2)[Gal(a1-3)]Gal(b1-3)GlcNAc(b1-6)GalNAc
# In short: as §1
# [25] = target: Fuc(a1-2)[Gal(a1-3)]Gal(b1-4)Glc
# In short: as §1
# [26] = target: Fuc(a1-2)[Gal(a1-3)]Gal(b1-4)GlcNAc
# In short: as §1
# [27] = target: Fuc(a1-2)[Gal(a1-3)]Gal(b1-4)GlcNAc(b1-2)Man
# In short: as §1
# [28] = target: Fuc(a1-2)[Gal(a1-3)]Gal(b1-4)GlcNAc(b1-2)Man(a1-3)[Fuc(a1-2)[Gal(a1-3)]Gal(b1-4)GlcNAc(b1-2)Man(a1-6)]Man(b1-4)GlcNAc(b1-4)GlcNAc
# In short: as §1
binder,measurement,setting,value
B1,glycan array binding signal (z-score),[1],0.208
same,glycan array binding signal (z-score),[2],0.09
same,glycan array binding signal (z-score),[3],0.272
same,glycan array binding signal (z-score),[4],-0.124
same,glycan array binding signal (z-score),[5],0.119
same,glycan array binding signal (z-score),[6],-0.093
same,glycan array binding signal (z-score),[7],-0.396
same,glycan array binding signal (z-score),[8],0.255
same,glycan array binding signal (z-score),[9],0.564
same,glycan array binding signal (z-score),[10],-0.393
same,glycan array binding signal (z-score),[11],0.372
same,glycan array binding signal (z-score),[12],0.154
same,glycan array binding signal (z-score),[13],-0.433
same,glycan array binding signal (z-score),[14],-0.056
same,glycan array binding signal (z-score),[15],0.442
same,glycan array binding signal (z-score),[16],-0.281
same,glycan array binding signal (z-score),Fuc(a1-2)Gal6S(b1-4)Glc,-0.781
same,glycan array binding signal (z-score),[17],-0.861
same,glycan array binding signal (z-score),Fuc(a1-2)[Gal(a1-3)]Gal,-0.542
same,glycan array binding signal (z-score),[18],-0.296
same,glycan array binding signal (z-score),[19],-0.268
same,glycan array binding signal (z-score),[20],-0.377
same,glycan array binding signal (z-score),[21],0.607
same,glycan array binding signal (z-score),[22],0.306
same,glycan array binding signal (z-score),[23],-0.708
same,glycan array binding signal (z-score),[24],-0.878
same,glycan array binding signal (z-score),[25],0.094
same,glycan array binding signal (z-score),[26],-0.138
same,glycan array binding signal (z-score),[27],-0.922
same,glycan array binding signal (z-score),[28],-0.146

# Reformatted: results already given.
binder	measurement	setting	value
B1	glycan array binding signal (z-score)	[24]	-0.878
same	glycan array binding signal (z-score)	[25]	0.094
